The values below come from paper PMC5121602.

Amino acid sequences for entries named in this document (tags omitted).
UniProt P46684: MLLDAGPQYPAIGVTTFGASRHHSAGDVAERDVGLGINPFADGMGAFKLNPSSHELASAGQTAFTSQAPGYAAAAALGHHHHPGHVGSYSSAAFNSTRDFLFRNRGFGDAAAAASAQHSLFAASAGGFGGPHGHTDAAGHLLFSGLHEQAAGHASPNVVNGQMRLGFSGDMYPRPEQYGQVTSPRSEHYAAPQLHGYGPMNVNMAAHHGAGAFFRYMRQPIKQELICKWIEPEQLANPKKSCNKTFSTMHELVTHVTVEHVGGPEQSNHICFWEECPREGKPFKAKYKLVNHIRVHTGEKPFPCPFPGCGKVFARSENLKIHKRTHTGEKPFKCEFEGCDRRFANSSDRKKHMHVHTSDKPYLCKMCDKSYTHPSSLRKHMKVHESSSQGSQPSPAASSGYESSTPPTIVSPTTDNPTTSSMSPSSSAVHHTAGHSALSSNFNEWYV

Results are given in words; binding and its absence hold for the method and conditions named. Binding seen in cells or lysates may run through a third protein. Tags and fused reporters may be left off the sequences shown.

The target of this assay is T1, HA-tagged Gmnn (mouse) (UniProt O88513).
T1 sequence: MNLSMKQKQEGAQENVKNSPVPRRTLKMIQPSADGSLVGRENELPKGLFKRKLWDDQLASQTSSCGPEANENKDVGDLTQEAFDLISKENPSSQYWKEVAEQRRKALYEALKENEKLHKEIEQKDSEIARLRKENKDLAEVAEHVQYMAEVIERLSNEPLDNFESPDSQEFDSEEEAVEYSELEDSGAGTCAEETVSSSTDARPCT
Nature of the assay: co-IP; HEK 293 cells transfected with HA-tagged Gmnn and Myc-tagged Zic1; immunoprecipitation with HA antibody, blotted for Myc.

With “Myc-tagged Zic1 (from UniProt P46684 1-447)”, the binding entry was “no binding”.
